Data taken from ChEMBL document CHEMBL3988442, “University of Dundee, Small-Polar-MMV Screening Library” (2021).

Protein sequences, listed by entry. Tags and fused reporters are not part of them.
UniProt E9BF75, entry or part of it: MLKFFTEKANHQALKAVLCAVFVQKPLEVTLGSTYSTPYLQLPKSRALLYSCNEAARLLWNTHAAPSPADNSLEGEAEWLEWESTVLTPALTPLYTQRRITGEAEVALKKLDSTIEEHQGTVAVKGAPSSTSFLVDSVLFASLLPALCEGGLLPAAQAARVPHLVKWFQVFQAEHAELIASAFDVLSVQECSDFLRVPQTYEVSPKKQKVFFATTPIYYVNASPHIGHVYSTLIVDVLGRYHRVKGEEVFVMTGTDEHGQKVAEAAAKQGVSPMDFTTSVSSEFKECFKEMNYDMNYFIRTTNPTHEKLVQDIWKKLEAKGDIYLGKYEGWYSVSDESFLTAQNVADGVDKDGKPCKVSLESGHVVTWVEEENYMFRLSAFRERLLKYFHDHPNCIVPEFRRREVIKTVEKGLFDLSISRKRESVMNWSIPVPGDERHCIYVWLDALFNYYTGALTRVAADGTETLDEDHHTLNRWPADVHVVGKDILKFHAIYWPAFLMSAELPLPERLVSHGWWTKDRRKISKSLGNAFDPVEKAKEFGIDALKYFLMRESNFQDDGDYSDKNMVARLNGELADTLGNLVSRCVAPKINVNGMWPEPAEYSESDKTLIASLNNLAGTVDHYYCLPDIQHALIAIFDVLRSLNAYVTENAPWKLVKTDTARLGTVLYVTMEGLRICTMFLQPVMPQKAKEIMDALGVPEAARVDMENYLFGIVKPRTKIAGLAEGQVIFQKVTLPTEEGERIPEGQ

Results are percentages, as filed.
The record does not define 0% and 100%; most values in the screen are far below 50% and negative numbers occur (in some assays of this library far below -100).
This is an unselected part of the compounds tested.

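Primary screen of methionyl-tRNA synthetase; the read-out is not stated. Target: Methionyl-tRNA synthetase (putative), Leishmania donovani (UniProt E9BF75). The test concentration is not given. The values are filed as inhibition. Of about 68,000 compounds tested this way, about 24 (0.035%) reached 50% or more in at least one test.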

| # | structure | Inhibition |
|---|---|---|
| 1 | `CC(C)c1nc(C2CCCN(C(=O)CCCn3cccn3)C2)no1` (centres undefined) | 16.48 |
| 2 | `O=C(Cc1csc(-c2cccc(Cl)c2)n1)NCc1cccc(C(=O)O)c1` | 11.78 |
| 3 | `CC(=O)NC1CCCN(C(=O)NCc2cccnc2-n2cccn2)C1` (centres undefined) | 14.69 |
| 4 | `Cc1ccccc1OC1CCN(C(=O)c2c[nH]c(=O)[nH]c2=O)CC1` | 6.15 |
| 5 | `Cc1occc1C(=O)N1C[C@H]2CCCC(OCc3cccnc3)[C@H]2C1` (some centres undefined) | 8.148 |
| 6 | `Cc1nn2cc(CNc3nccc(CCC(F)(F)F)n3)nc2s1` | 8.403 |
| 7 | `COCCN(Cc1cccnc1)S(=O)(=O)c1ccc(F)cc1C` | 4.244 |
| 8 | `c1csc(-c2cc(CN3CCN(c4cnccn4)CC3)no2)c1` | 15.03 |
| 9 | `Cc1ccc(F)cc1CC(=O)N(CCN1CCOCC1)Cc1ccco1` | 10.03 |
| 10 | `Cc1cccc(COC[C@@H]2CC[C@H]3[C@H](CCN3Cc3ccco3)O2)n1` | 18.5 |
| 11 | `O=C1CC(c2ccc3c(c2)OCO3)c2snc(C(=O)O)c2N1` (centres undefined) | 0.7538 |
| 12 | `CN(C)S(=O)(=O)N1CCC(c2nnc(C(F)(F)F)o2)CC1` | 1.863 |
| 13 | `CCc1ncc2c(n1)CN(C(=O)c1c(C)[nH]c(C(C)=O)c1C)C2` | 5.722 |
| 14 | `CCN(Cc1ccoc1)C(=O)c1ccc(C)c(S(N)(=O)=O)c1` | 8.271 |
| 15 | `CCc1nnsc1C(=O)N1CCN(CC(O)C(C)(C)C)CC1` (centres undefined) | 13.53 |
| 16 | `CC(CCc1cccn1C)NC(=O)Nc1cccn(C)c1=O` (centres undefined) | 23.63 |
| 17 | `CCCNC(=O)c1nn(CC)cc1Cl` | 22.86 |
| 18 | `CCNC(=O)[C@@H]1C[C@@H](N)CN1C(=O)c1cc2ccccc2[nH]1` | 17.65 |
| 19 | `CN(C)C(=O)c1ccc(CNC(=O)NCCN(C)C2CCCC2)cc1` | 5.882 |
| 20 | `OCCC1CN(C2CCC2)CCN1C1CCCC1` (centres undefined) | 7.08 |
| 21 | `CCc1cnc(N2CC3(CCN(Cc4ccsc4)C3)C2)nc1` | 1.288 |
| 22 | `CS(=O)(=O)NCC(=O)NC1CCc2nccn2C1` (centres undefined) | 10.73 |
| 23 | `CCCOCCN1CCN(c2ncnc3[nH]ccc23)CC1` | 13.15 |
| 24 | `CCNC(=O)N1CCC(c2ccccc2)C1` (centres undefined) | 14.08 |
| 25 | `COc1c(CNC2CCCOc3ccc(F)cc32)c(C(C)C)nn1C` (centres undefined) | 21.79 |
| 26 | `CC(=O)NCc1cc2n(n1)CCN(Cc1cc(-c3ccccc3)no1)C2` | 12.13 |
| 27 | `CSCCC(CO)NC(=O)c1sc(-c2ccccc2Cl)nc1C` (centres undefined) | 17.01 |
| 28 | `Fc1ccc(CN2CCCN(Cc3cscn3)CC2)cc1` | 17.36 |
| 29 | `Cc1[nH]nc(CCC(=O)NCC2CCN(C3CCCCC3)C2)c1C` (centres undefined) | 14.11 |
| 30 | `O=C1CCCN1CCCN1CCCC1Cn1cccn1` (centres undefined) | 9.239 |
| 31 | `CCCOc1ccc(CNCCn2cccn2)cc1` | 10.76 |
| 32 | `Cc1cccc(C(=O)N2C[C@@H]3OCCN(C(C)C)[C@@H]3C2)n1` | 10.46 |
| 33 | `CCCc1nc(N2CCCCCC2)c2c(n1)c(C)nn2CC` | 10.53 |
| 34 | `COc1ccc(-n2nc(C(C)C)nc2COC(C)C)cc1` | 9.804 |
| 35 | `CN(C(=O)Nc1ccncc1)C1CCN(c2ccc(Cl)cc2)CC1` | 14.04 |
| 36 | `Cc1nc(CC(=O)N2CCC(c3ccn4nccc4n3)CC2)cs1` | 18.55 |
| 37 | `O=C(O)c1cccc(CN2CCCC(Cc3ccn[nH]3)C2)c1` (centres undefined) | 16.2 |
| 38 | `CS(=O)(=O)N1CCc2[nH]cnc2C12CCN(C(=O)c1ccc[nH]1)CC2` | 10.64 |
| 39 | `Cn1ccc(CN2CCC(CC(=O)NC3CCCC3)CC2)cc1=O` | 11.22 |
| 40 | `O=C(Cc1ccc(F)cc1Cl)N1C[C@@H](CN2CCC(O)CC2)[C@@H](CO)C1` | 5.974 |
| 41 | `CO[C@H]1C[C@@H]2CN(C(=O)c3cc4cccc(F)c4[nH]3)C[C@@H]2C1` | 9.006 |
| 42 | `CC(NC(N)=O)C(=O)N(C)CCCc1cc(-c2ccccc2)no1` (centres undefined) | 9.841 |
| 43 | `COc1cc(-c2cc(NC3CCCC3)nc3[nH]ccc23)nc(N)n1` | 16.37 |
| 44 | `CC1(C)CN(C(=O)NCCc2ccn(-c3ccccc3)n2)CCO1` | 11.81 |
| 45 | `O=C(C1CCCO1)N1CCCn2c(nnc2Cn2cccn2)C1` (centres undefined) | 14.13 |
| 46 | `c1cc2c(cc1CN(Cc1nc(C3CC3)no1)C1CCCC1)OCO2` | 16.67 |
| 47 | `CCCOC(=O)N1CCCC(c2nnc(CN3CCOCC3)n2C)C1` (centres undefined) | 6.044 |
| 48 | `O=C(CC1CC1)N1C[C@H]2CN(CC3CC3)C(=O)[C@H]2C1` | 7.778 |
| 49 | `CCN1CCN(C(C)CNC(=O)Nc2nnc(C(C)C)s2)CC1` (centres undefined) | 20.7 |
| 50 | `CCN(CCN1CCCCCC1)C(=O)COc1cccnc1` | 3.866 |
| 51 | `CCS(=O)(=O)N1CCCC(c2ccnc(N(C)C)c2)C1` (centres undefined) | 13.55 |
| 52 | `CCN(CC)CCN1CCO[C@H]2[C@@H](OCc3ccccn3)CC[C@@H]21` | 11.4 |
| 53 | `CN(C)C(=O)c1ccc(CNc2c(Cl)cccc2C#N)cc1` | 12.56 |
| 54 | `COCCCNC(=O)N1CCN(C(=O)c2nsc3ccc(C)cc23)CC1` | 9.329 |
| 55 | `CN(CC(=O)N1CCC(COc2ccccc2)CC1)c1cnccn1` | 13.65 |
| 56 | `O=C(c1ccc(Br)o1)N1CCN(Cc2ccc(OC(F)(F)F)cc2)CC1` | 5.419 |
| 57 | `Cn1cc(N2CCC(NC(=O)c3c(F)cccc3Cl)C2=O)cn1` (centres undefined) | 12.81 |
| 58 | `COCCNC(=O)c1nc(-c2ccc3cc[nH]c3c2)no1` | 13.03 |
| 59 | `c1ccc(-c2cc(CNCCN3CCOCC3)c3nnnn3c2)cc1` | 17.36 |
| 60 | `COCC(=O)N1CCCCC1c1ccnc(Nc2cnccn2)n1` (centres undefined) | 17.48 |
| 61 | `Cc1ncc(C(=O)NCCNc2ncccc2C#N)s1` | 7.669 |
| 62 | `CCc1nc(CNc2ccc(F)cc2I)no1` | -1.344 |
| 63 | `Cn1ccnc1C(=O)NC[C@H]1OC[C@@H]2CCN(S(C)(=O)=O)C[C@@H]21` | 2.801 |
| 64 | `OC1(CN2CCCC2)COCCN(c2noc(-c3ccccc3)n2)C1` (centres undefined) | 23.95 |
| 65 | `OCC(O)CSCc1cn(-c2ccc(F)c(Cl)c2)nn1` (centres undefined) | 14.64 |
| 66 | `CC(C)CN1CC2(CCN(C(=O)C(O)c3cccc(Cl)c3)CC2)CC1=O` (centres undefined) | 21.09 |
| 67 | `O=C(c1ccncc1)N1CCC2(CCCN(c3ncc(F)cn3)C2)C1` (centres undefined) | 11.37 |
| 68 | `CNc1cccc(C2CN(C(=O)CNS(C)(=O)=O)CCO2)n1` (centres undefined) | 5.774 |
| 69 | `CCc1cc(O)nc(C2CCCN(Cc3ccncc3)C2)n1` (centres undefined) | 11.06 |
| 70 | `Cc1csc(CN2CC[C@H]3C[C@H](c4ccncn4)O[C@@H]3C2)n1` | 7.534 |
| 71 | `O[C@@]1(CNCCCOc2cccnc2)CCCN2CCCC[C@@H]21` | 3.015 |
| 72 | `CN(C)C(C(=O)NCC(F)(F)F)c1cccc(F)c1` (centres undefined) | 16.72 |
| 73 | `CCN1CCN(C(=O)NCc2cccnc2-n2cccn2)CC1` | 4.335 |
| 74 | `COCC(NC1CCSCC1)c1ccnn1C` (centres undefined) | 5.584 |
| 75 | `O=C(NC[C@H]1OC[C@@H](NCc2ccccc2F)[C@@H]1O)c1ccc(F)cc1` | 12.05 |
| 76 | `CNC(=O)CCc1cc(C2CCCN2S(C)(=O)=O)nc(C)n1` (centres undefined) | 15.41 |
| 77 | `CCNC(=O)COc1ccc(C(=O)NC(C)CCc2ccco2)cc1` (centres undefined) | 2.174 |
| 78 | `Cc1nccc([C@@H]2C[C@@H]3CCN(S(=O)(=O)C4CC4)C[C@H]3O2)n1` | 20.81 |
| 79 | `CC1=C[C@@H](CN2CCC(O)CC2)[C@H](C(C)C)C[C@H]1Cc1nnc(C)o1` | 6.015 |
| 80 | `O=S1(=O)COCCN1Cc1ccc(Cl)c(Cl)c1` | 12.96 |
| 81 | `O=C(C1CCC1)N1C[C@@H]2CCN(c3cccnc3)C[C@@H]2C1` | -3.17 |
| 82 | `CC(C)n1ccnc1C1CCCN(c2ncccc2C(N)=O)C1` (centres undefined) | 18.44 |
| 83 | `Cc1cc(C(=O)N2CCc3ncc(CN4CCCC4)n3CC2)no1` | 17.37 |
| 84 | `CCn1ncc2c1C(COC)CN(Cc1cccnc1)C2` (centres undefined) | 5.584 |
| 85 | `CCOc1c(Br)cc(CNCCc2nnc3n2CCCCC3)cc1OC` | 12.81 |
| 86 | `O=C(c1ccnc(NC2CC2)c1)N1CCCC1c1cccc(Br)c1` (centres undefined) | -1.12 |
| 87 | `NC(=O)CC1CCN(c2ncnc3cccc(F)c23)CC1` | 8.871 |
| 88 | `Cn1cccc1C(=O)N1CCCC2(CCN(CCN3CCCC3)C2=O)C1` (centres undefined) | 6.299 |

Once more, the final 7:

- CC(C)n1ccnc1C1CCCN(c2ncccc2C(N)=O)C1 (centres undefined) : 18.44%
- Cc1cc(C(=O)N2CCc3ncc(CN4CCCC4)n3CC2)no1 : 17.37%
- CCn1ncc2c1C(COC)CN(Cc1cccnc1)C2 (centres undefined) : 5.584%
- CCOc1c(Br)cc(CNCCc2nnc3n2CCCCC3)cc1OC : 12.81%
- O=C(c1ccnc(NC2CC2)c1)N1CCCC1c1cccc(Br)c1 (centres undefined) : -1.12%
- NC(=O)CC1CCN(c2ncnc3cccc(F)c23)CC1 : 8.871%
- Cn1cccc1C(=O)N1CCCC2(CCN(CCN3CCCC3)C2=O)C1 (centres undefined) : 6.299%